Data published in PubChem BioAssay AID1347075 (National Center for Advancing Translational Sciences (NCATS), 2019).
Hit rate of the full screen: of about 400,000 compounds, about 5,500 (1.4%) were called active. This list was built around the results that the source calls inconclusive (neither active nor inactive); the mix of calls is not that of the screen. Calls follow the shape of the dose curve; as a rule, active = well fitted cell-killing curve with a large enough effect; inconclusive = small, poorly fitted or top-dose-only effect, or effect the other way; inactive = flat fitted curve, though single readings scatter. Where the call is inconclusive, the potency comes from a doubtful curve fit.

Test: qHTS assay for MDR1-selective chemotherapeutics: Primary screen using the parental adenocarcinoma cell KB-3-1; also: nearly all actives have a fitted effect of over 60% in size
Conditions: KB-3-1 viability, CellTiter-Glo ATP luminescence, 72 h; activity change, negative = cytotoxic: at 46.1 µM (top of the series)
Method in brief: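 Cells are dispensed, compounds pinned in, plates held at 37 °C for 72 h, then CellTiter-Glo is added and luminescence read after 10 minutes. Cell line: parental KB-3-1 in phenol-red-free DMEM, 10% FBS.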
% is scaled to controls: 0 for no effect and ±100 for the full control effect; potency is read from the fitted curve at half-maximal effect.

SMILES	activity change, negative = cytotoxic	Potency
COCCCNC(=O)c1cc(Cc2ccccc2)sc1N	inactive: -0.67%	
O=C(NCCN1CCN(c2ccccc2)CC1)Nc1ccc(Cl)cc1	inactive: -5.25%	
O=C(Nc1ccc(Cl)c(-c2nc3ccccc3o2)c1)c1ccc(-c2cccc([N+](=O)[O-])c2)o1		inconclusive: 29.1 µM [cytotoxic, single point]
COc1ccc(OC)c(N/C(=N/C(=S)Nc2ccccc2)Nc2nc(C)cc(C)n2)c1	inactive: 1.71%	
Cc1cc(N)n2ncc(-c3ccc(Cl)cc3)c2n1		active: 18.4 µM
COc1ccc(CN2CCN(CCc3ccccc3)C(CCO)C2)c(Cl)c1OC (stereo not drawn)		inconclusive: 18.4 µM [cytotoxic, single point]
FC(F)(F)c1cccc(NC(=S)NC2CCCC2)c1		active: 18.4 µM
Cc1ccc(Nc2nc(CSc3nnc(-c4ccncc4)n3-c3ccccc3C)cs2)cc1		inconclusive: 14.6 µM [cytotoxic, partial curve, poor fit]
FC(F)Sc1ccc(-n2cc(-c3ccc(Cl)cc3)[n+]3c2CCC3)cc1		active: 18.4 µM
O=C(Cn1ncc2c([nH]c3ccccc32)c1=O)N1CCN(c2ccccn2)CC1	inactive: 7.29%	
CC(=O)c1ccc2c(ccc3ccccc32)c1		inconclusive: 29.1 µM [cytotoxic, single point]
CCOC(=O)N1CCN(c2ccc(Cl)cc2)CC1	inactive: 8.31%	
CCC(C)(C)NC(=O)CN(Cc1ccc2c(c1)OCO2)C(=O)CCC(=O)Nc1cc(C)ccn1		inconclusive: 13 µM [rising, partial curve, poor fit]
CCOC(=O)[C@H]1[C@H]2COc3ccc(Br)cc3[C@H]2N2C(=O)CN(Cc3ccc(Cl)cc3)C(=O)[C@@]12C		inconclusive: 32.6 µM [cytotoxic, single point]
Cc1ccc(N/C=C/C(=O)c2ccco2)c(O)c1		inconclusive: 32.6 µM [cytotoxic, single point]
CCOC(=O)c1cc(Cl)c2c(ccc3ccccc32)n1		inconclusive: 16.4 µM [rising, partial curve, poor fit]
CCOC(=O)c1cc(-c2ccc(OC)c(S(=O)(=O)NC3CCCCC3)c2)on1	inactive: 6.73%	
O=C(Cc1ccc(Cl)cc1)Oc1cccc2cccnc12		inconclusive: 29.1 µM [rising, single point]
Cc1cc(C)c(NC(=O)CCN2CCN(Cc3ccccc3)CC2)c(C)c1		inconclusive: 29.1 µM [cytotoxic, single point]
COc1ccc(/C=N/Nc2nc(-c3cccc(S(=O)(=O)N4CCCC4)c3)cs2)c(OC)c1		active: 18.4 µM
CC(C)c1ccc(/C=c2\sc3n(c2=O)C(N)=C(C#N)C(c2ccc(C(C)C)cc2)C=3C(N)=O)cc1 (stereo not drawn)		inconclusive: 9.2 µM [cytotoxic, partial curve, poor fit]
O=C(CCN1C(=O)c2ccccc2C1=O)C1=NN[C@@H]2C(=O)N(c3ccc4c(c3)OCO4)C(=O)[C@H]12		inconclusive: 29.1 µM [rising, single point]

As entered above:
Entry for `O=C(NCCN1CCN(c2ccccc2)CC1)Nc1ccc(Cl)cc1` under activity change, negative = cytotoxic: inactive: -5.25%
Entry for `COc1ccc(OC)c(N/C(=N/C(=S)Nc2ccccc2)Nc2nc(C)cc(C)n2)c1` under activity change, negative = cytotoxic: inactive: 1.71%
Entry for `Cc1ccc(N/C=C/C(=O)c2ccco2)c(O)c1` under Potency: inconclusive: 32.6 µM [cytotoxic, single point]

More results follow:

SMILES	activity change, negative = cytotoxic	Potency
CCOC(=O)c1[nH]nc(-c2cc(CC)c(O)cc2O)c1-c1cscn1		inconclusive: 25.9 µM [cytotoxic, single point]
CCCc1sc(N/N=C/c2ccccn2)nc1-c1ccc(F)cc1		inconclusive: 16.4 µM [cytotoxic, single point]
CCCN1CCN(CCCNC(=O)c2cc3c(=O)[nH]c4ccc(C)cc4c3s2)CC1	inactive: -26.3%	
COc1nc(Nc2nc3ccccc3c(=O)[nH]2)nc2ccc(C)cc12		inconclusive: 7.31 µM [cytotoxic, partial curve, poor fit]
COc1cccc2c1OCC(CN1CCN(Cc3ccccc3)C(CCO)C1)=C2 (stereo not drawn)		inconclusive: 9.2 µM [cytotoxic, partial curve, poor fit]
O=C(NNC(=O)c1cc2ccccc2oc1=O)c1ccccc1[N+](=O)[O-]	inactive: 11.4%	
OC[C@@H]1CN(Cc2ccc(Cl)cc2)C[C@H](n2cnc3c(NCc4ccco4)ncnc32)O1	inactive: -0.0681%	
Cc1cc(Nc2cccc(Cl)c2)nc2ccc(NC(=O)Cc3ccc(Cl)cc3)cc12		inconclusive: 18.4 µM [cytotoxic, partial curve, poor fit]
O=c1c2ccccc2nc(-c2cccs2)n1-c1cccc2ccccc12		inconclusive: 25.9 µM [cytotoxic, single point]
C/C(=N\NC(=O)c1ccccc1Cl)c1ccccn1		inconclusive: 3.26 µM [cytotoxic, partial curve, poor fit]
COc1ccc(CCNC(=O)c2ccc3c(c2)CCN3S(=O)(=O)c2ccccc2)cc1OC	inactive: -1.32%	
CCOC(=O)COc1ccc(/C=C/[N+](=O)[O-])c(OCC(=O)OCC)c1		inconclusive: 29.1 µM [cytotoxic, single point]
NS(=O)(=O)c1ccc(N2N=C(c3ccccc3)CC2c2ccccc2)cc1 (stereo not drawn)		inconclusive: 32.6 µM [cytotoxic, single point]
N#Cc1ccc(OCC(=O)Nc2nc(-c3ccccn3)cs2)cc1		active: 16.4 µM
O=C(Nc1ccc(F)cc1)C(c1cc2ccccc2o1)N1CCN(CC(=O)N2CCCC2)CC1 (stereo not drawn)	inactive: 9.22%	
COc1cc(NC(=O)C2CC(c3c(F)cccc3Cl)=NO2)cc(OC)c1OC (stereo not drawn)		inconclusive: 20.6 µM [cytotoxic, single point]
CN1CCC2(CC1)N=C(c1ccc(F)cc1)C(=S)N2C(=O)c1ccc(C(C)(C)C)cc1		inconclusive: 20.6 µM [cytotoxic, single point]
CCCc1nc2ccccc2c(=O)n1NC(=O)c1c(O)c2cccc3c2n(c1=O)CCC3		inconclusive: 20.6 µM [cytotoxic, partial curve, poor fit]
CCCCOC(=O)c1ccc(NC(=S)N2CCN(c3ncc4c(=O)c(C(=O)O)cn(CC)c4n3)CC2)cc1	inactive: 10.6%	
Cc1ccc(-c2nc(=Nc3c(C)cc(C)cc3C)sn2-c2ccccc2)cc1		inconclusive: 11.6 µM [cytotoxic, partial curve, poor fit]
CCOc1cc(/C=N\Nc2ncc(F)c(N3CCOCC3)n2)ccc1Oc1nc(Cl)ncc1F	inactive: -28.3%	
